Measured values reported in PMC6079100.
Results are given in words; binding and its absence hold for the method and conditions named. Binding seen in cells or lysates may run through a third protein. A yes stands for co-enrichment or nearness to the bait. Other partners may have been found. Tags and fused reporters may be left off the sequences shown.

Protein sequences, listed by entry. Tags and fused reporters are not part of them.
UniProt Q6W2J9: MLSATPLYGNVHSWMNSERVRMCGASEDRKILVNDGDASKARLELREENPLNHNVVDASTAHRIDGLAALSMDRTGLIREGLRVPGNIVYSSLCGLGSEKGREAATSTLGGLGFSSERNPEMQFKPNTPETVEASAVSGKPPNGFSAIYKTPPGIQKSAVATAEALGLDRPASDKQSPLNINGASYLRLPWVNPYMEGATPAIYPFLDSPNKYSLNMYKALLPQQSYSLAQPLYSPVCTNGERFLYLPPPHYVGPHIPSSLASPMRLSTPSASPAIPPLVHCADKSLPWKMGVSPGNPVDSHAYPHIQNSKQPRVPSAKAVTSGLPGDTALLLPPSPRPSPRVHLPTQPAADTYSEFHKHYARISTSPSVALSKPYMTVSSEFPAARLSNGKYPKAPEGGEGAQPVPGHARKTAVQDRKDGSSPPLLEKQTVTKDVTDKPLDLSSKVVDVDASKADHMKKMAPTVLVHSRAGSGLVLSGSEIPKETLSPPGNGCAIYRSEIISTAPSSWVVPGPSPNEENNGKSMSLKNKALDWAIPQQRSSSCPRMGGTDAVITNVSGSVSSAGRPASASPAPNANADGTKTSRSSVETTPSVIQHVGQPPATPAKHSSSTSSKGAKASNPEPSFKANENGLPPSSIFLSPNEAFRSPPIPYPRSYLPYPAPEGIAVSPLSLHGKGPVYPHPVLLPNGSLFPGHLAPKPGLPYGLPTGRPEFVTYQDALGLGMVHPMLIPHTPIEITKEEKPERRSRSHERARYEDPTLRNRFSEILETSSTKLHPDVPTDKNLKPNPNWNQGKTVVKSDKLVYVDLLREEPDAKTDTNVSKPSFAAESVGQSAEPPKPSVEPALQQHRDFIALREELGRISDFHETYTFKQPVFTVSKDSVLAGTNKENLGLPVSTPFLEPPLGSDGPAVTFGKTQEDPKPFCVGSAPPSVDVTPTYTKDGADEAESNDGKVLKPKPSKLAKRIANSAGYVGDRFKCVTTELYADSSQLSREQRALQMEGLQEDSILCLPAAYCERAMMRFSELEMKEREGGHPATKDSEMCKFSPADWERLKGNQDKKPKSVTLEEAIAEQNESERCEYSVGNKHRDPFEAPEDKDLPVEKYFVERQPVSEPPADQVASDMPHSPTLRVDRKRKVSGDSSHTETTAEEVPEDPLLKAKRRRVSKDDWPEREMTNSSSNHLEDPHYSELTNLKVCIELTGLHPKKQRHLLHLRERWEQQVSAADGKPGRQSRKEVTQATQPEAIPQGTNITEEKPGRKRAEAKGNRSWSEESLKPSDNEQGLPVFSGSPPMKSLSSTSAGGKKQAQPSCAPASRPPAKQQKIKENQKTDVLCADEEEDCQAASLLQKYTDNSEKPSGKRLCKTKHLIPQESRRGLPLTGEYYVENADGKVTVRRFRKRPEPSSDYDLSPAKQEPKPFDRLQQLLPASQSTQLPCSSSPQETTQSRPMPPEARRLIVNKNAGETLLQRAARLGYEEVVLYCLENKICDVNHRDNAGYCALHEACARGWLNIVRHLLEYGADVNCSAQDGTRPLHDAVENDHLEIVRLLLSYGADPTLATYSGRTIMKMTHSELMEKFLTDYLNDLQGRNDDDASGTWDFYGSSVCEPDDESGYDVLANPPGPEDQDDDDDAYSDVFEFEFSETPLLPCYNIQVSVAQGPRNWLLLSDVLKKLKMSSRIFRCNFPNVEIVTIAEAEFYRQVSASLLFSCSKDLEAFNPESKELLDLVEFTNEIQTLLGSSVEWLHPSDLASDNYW
UniProt O75376: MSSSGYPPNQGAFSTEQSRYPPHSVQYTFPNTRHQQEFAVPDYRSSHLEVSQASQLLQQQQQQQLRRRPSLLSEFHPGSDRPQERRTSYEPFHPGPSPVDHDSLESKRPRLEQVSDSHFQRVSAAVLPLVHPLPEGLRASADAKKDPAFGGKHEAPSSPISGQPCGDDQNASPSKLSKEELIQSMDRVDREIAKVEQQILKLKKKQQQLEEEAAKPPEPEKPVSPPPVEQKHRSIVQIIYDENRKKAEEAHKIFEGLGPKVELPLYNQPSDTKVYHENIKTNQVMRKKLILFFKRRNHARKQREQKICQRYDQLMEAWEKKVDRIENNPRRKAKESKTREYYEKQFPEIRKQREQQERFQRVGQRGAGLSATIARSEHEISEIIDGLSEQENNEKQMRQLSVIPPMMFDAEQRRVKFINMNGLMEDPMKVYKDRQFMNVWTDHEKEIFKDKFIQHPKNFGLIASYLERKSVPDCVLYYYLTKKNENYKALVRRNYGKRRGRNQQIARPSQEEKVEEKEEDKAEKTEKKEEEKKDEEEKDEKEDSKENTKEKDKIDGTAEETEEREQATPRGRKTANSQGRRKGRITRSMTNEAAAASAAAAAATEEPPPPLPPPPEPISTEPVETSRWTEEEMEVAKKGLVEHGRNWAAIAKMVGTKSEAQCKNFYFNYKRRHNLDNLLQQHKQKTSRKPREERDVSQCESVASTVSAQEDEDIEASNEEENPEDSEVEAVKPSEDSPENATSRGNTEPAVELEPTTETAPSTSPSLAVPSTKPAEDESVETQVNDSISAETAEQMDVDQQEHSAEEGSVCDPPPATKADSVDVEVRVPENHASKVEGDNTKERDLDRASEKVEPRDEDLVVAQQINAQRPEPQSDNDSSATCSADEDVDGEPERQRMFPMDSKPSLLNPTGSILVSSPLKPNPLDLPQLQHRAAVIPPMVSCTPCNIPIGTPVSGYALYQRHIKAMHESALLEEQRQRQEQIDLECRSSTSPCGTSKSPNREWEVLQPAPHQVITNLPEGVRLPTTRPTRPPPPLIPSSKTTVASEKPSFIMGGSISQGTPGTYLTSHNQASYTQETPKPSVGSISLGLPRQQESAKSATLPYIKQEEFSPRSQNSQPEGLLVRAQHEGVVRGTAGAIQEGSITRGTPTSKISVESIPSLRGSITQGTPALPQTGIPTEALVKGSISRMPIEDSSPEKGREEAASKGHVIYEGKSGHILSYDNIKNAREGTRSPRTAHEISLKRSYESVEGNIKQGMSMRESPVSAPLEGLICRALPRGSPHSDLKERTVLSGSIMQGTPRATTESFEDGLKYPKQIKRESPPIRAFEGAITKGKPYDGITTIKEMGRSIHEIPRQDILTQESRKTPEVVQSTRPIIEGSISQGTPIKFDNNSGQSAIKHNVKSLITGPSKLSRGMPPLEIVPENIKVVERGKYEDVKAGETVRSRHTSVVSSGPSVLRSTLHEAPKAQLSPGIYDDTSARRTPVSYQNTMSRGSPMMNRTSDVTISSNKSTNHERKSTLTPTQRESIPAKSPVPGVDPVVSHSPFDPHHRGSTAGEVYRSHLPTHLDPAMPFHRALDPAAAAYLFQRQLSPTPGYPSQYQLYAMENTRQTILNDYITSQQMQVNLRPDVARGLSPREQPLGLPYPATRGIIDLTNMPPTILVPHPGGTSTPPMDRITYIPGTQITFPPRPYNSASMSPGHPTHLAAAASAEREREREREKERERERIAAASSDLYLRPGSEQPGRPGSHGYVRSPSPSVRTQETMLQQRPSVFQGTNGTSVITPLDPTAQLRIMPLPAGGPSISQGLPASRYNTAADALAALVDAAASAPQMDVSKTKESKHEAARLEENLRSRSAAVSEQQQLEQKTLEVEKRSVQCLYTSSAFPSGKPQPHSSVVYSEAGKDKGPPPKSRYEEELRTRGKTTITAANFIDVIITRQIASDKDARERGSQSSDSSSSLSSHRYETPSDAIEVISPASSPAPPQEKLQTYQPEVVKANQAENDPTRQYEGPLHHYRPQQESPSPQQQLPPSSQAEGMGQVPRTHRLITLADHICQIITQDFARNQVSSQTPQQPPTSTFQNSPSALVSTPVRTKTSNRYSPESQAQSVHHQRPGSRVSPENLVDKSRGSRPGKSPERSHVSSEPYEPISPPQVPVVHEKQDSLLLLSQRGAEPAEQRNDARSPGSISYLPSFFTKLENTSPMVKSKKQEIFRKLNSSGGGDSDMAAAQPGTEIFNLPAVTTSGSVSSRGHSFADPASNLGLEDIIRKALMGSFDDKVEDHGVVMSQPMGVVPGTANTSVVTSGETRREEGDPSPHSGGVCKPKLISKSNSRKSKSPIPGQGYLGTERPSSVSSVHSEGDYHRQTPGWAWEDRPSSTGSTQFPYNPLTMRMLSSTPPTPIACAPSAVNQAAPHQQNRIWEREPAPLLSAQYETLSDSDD

These substances were tested against T1, BirA*-Flag-TRPS1 (UniProt Q9UHF7) (assay: proximity labelling; BioID: BirA*-Flag-TRPS1 or NLS-BirA*-Flag control in 293T cells, 50 μM biotin for 18 h, streptavidin pull-down, LC-MS/MS, three biological replicates).
T1 sequence: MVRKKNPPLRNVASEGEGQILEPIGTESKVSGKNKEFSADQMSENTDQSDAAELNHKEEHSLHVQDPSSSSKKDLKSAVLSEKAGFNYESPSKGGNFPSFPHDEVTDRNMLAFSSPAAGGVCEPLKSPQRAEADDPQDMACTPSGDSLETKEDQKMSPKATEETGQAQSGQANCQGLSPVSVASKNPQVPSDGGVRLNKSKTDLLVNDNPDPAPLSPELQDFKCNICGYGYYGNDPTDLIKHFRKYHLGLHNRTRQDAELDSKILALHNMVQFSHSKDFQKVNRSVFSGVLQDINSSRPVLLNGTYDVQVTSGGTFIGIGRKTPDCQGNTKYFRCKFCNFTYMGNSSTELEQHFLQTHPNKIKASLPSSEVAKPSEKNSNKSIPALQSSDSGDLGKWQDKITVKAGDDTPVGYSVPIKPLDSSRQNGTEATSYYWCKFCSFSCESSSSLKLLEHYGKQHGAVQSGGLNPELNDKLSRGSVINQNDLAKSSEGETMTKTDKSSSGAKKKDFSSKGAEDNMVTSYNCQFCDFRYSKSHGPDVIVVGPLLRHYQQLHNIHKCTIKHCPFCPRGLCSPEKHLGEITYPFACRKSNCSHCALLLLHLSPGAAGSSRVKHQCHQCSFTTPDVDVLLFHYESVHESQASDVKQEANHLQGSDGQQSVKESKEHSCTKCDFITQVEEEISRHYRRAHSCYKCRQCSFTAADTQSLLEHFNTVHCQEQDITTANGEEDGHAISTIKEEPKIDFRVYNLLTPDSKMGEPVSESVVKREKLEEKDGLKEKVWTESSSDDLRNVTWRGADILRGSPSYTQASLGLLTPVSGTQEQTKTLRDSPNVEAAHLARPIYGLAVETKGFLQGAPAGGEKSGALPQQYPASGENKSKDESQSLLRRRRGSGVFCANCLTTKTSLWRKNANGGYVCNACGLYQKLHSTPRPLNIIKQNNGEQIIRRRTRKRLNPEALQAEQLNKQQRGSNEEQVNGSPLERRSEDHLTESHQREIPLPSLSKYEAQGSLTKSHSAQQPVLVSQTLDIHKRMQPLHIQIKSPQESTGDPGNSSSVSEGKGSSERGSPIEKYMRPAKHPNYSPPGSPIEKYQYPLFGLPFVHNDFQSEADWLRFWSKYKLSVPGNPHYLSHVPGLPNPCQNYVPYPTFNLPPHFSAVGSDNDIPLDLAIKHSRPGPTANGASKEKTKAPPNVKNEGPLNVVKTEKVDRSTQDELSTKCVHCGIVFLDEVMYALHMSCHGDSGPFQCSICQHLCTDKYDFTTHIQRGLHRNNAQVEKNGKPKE

binding, binds:
BCOR, endogenous in 293T cells (from UniProt Q6W2J9 1-1755)
CTBP2, endogenous in 293T cells (from UniProt P56545 1-445)
NCOR1, endogenous in 293T cells (from UniProt O75376 1-2440)
